# Patent publication US20150038671A1 (priority 2013, published 2015)
# Starred links: 1 amine or outer side, 2 acyl side, 3 side chain; linkers in the order of their positions; H or OH if unused. Positions of bridges follow the written chain, without caps; N, C: chain ends. Chains are numbered I, II in the order given. X1 = O=C(CCN[*:2])[*:1]
# Test: general procedure: Fmoc solid-phase peptide synthesis; Fmoc-Val-Wang resin; Rink amide resin; HBTU/DIPEA
# Details: conjugation step, overall
substance,measurement,value
I: H-CKNYKKTEV-OH / II: H-CRRRRRRR-NH2 (disulfide I:1-II:1; linker I:6-I:8 via X1; SMILES CC(C)[C@H](NC(=O)[C@@H]1CCC(=O)NCCC(=O)NCCCC[C@H](NC(=O)[C@H](CCCCN)NC(=O)[C@H](Cc2ccc(O)cc2)NC(=O)[C@H](CC(N)=O)NC(=O)[C@H](CCCCN)NC(=O)[C@@H](N)CSSC[C@H](N)C(=O)N[C@@H](CCCNC(=N)N)C(=O)N[C@@H](CCCNC(=N)N)C(=O)N[C@@H](CCCNC(=N)N)C(=O)N[C@@H](CCCNC(=N)N)C(=O)N[C@@H](CCCNC(=N)N)C(=O)N[C@@H](CCCNC(=N)N)C(=O)N[C@@H](CCCNC(=N)N)C(N)=O)C(=O)N[C@@H]([C@@H](C)O)C(=O)N1)C(=O)O),conjugation yield,60%
